The list shows a part of the results. Residues, ends and D or L forms follow the SMILES beside them. *: point of attachment. Cbz = O=C(OCc1ccccc1)*
Key:
Assay in all cases: log2 fold change, soluble protein after heating vs DMSO (PISA); higher = thermal stabilisation; K562 cells, 10 uM, 30 min; active = over 0.2 and 3.5 SD of the protein, either way, in both replicates (recomputed)
[1] = compound: C#Cc1cccc(Nc2ncnc3cc(OCCOC)c(OCCOC)cc23)c1 [erlotinib]
Summary of the method: (§1)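 Thermal stability values are relative to control samples and come from duplicates. They are expressed as log2 fold changes. For measurement, K562 cells (2×10^6 cells/mL) received 10 μM compound for 30 min, and aliquots were heated for 3 min over 48°C-58°C, pooled, and extracted at 4°C in PBS with 0.5% NP-40. Soluble protein, the supernatant after 21,000xg for 90 min, was quantified by TMTpro 16plex LC-MS/MS with equalised channel sums.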

Amino acid sequences for entries named in this document (tags omitted). A change or cut given only in a name is not applied to a line headed by its entry.
UniProt O43529: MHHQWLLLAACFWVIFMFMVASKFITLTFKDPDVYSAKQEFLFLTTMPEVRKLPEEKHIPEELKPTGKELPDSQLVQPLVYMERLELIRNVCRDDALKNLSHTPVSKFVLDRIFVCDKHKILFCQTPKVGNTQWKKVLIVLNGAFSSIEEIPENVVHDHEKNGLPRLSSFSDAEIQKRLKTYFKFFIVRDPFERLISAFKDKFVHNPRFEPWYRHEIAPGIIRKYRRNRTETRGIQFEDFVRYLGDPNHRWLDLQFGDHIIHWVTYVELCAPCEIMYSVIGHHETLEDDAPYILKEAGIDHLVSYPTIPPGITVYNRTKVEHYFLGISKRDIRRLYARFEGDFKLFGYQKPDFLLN
UniProt Q6FI81: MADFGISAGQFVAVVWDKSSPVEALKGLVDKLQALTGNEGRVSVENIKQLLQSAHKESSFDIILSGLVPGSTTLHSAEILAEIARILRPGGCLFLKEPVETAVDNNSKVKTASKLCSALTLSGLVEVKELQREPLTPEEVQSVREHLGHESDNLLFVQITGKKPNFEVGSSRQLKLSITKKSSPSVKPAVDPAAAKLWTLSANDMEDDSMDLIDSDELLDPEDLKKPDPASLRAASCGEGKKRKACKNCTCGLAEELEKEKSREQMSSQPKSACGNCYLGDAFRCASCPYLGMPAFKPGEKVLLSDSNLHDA
UniProt P12277: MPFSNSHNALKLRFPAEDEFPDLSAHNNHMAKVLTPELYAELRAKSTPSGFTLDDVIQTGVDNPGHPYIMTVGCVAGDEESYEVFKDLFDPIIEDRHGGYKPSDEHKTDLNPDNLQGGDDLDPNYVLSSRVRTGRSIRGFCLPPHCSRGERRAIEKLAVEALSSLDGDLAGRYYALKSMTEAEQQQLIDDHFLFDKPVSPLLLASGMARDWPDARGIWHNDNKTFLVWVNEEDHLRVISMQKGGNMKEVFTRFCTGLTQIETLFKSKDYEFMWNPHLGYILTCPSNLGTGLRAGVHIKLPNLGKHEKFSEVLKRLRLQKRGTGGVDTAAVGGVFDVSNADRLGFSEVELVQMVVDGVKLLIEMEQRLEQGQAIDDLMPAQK
UniProt P61024, whole entry, looked up: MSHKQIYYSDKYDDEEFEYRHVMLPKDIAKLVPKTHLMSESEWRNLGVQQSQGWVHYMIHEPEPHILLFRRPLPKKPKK
UniProt Q9BQ75: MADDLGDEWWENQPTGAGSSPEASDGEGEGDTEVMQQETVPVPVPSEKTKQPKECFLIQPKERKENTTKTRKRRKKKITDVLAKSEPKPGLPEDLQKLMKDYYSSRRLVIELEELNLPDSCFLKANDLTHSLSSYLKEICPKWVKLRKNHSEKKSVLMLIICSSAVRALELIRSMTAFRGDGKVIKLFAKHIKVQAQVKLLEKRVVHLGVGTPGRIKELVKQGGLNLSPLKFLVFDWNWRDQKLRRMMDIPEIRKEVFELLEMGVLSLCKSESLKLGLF
UniProt Q9ULV3: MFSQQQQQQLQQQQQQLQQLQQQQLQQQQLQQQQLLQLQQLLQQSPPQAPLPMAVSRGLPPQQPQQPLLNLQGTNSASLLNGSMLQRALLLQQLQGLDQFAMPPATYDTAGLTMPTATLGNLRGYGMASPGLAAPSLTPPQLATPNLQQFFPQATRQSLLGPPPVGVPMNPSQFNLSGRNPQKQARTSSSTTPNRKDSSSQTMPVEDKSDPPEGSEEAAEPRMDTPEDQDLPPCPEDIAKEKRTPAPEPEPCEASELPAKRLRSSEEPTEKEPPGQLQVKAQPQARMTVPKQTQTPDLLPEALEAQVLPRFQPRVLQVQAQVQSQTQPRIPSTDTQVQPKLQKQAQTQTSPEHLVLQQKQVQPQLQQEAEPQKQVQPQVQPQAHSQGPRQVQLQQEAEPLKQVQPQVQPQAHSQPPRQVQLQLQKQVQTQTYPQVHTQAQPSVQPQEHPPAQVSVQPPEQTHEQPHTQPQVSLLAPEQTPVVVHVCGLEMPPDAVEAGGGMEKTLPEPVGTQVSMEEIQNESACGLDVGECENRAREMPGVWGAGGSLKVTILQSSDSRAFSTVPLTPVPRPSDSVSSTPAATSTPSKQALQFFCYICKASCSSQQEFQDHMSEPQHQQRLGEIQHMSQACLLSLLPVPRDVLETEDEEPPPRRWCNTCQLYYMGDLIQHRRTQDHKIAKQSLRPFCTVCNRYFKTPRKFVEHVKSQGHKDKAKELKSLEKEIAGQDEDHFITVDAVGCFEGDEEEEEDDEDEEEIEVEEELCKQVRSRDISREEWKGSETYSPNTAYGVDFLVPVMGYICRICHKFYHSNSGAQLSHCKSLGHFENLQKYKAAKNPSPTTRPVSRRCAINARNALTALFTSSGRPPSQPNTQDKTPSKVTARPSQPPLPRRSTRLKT
UniProt Q9NZN8, whole entry, looked up: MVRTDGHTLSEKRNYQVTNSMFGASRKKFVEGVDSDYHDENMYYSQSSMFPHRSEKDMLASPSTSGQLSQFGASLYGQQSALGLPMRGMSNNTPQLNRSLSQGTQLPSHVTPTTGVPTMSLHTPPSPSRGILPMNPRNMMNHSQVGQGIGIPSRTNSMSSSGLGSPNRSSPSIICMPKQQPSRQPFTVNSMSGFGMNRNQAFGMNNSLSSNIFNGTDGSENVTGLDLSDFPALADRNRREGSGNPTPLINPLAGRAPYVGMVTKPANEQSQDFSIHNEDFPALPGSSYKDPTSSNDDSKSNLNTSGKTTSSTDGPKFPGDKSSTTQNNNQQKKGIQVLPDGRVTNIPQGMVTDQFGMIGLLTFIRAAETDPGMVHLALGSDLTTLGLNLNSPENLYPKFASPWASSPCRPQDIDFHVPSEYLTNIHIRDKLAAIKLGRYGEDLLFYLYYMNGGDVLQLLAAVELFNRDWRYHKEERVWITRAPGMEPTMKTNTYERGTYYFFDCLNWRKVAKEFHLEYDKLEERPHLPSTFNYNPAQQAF
UniProt Q99439: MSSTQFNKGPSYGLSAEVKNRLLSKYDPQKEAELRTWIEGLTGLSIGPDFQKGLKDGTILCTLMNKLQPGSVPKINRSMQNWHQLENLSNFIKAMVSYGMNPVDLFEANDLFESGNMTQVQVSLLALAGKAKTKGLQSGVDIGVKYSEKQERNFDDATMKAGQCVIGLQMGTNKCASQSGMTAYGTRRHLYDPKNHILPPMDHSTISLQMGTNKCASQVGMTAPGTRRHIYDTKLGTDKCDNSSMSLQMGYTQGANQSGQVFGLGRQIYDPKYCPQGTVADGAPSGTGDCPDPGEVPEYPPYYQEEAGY
UniProt Q13057: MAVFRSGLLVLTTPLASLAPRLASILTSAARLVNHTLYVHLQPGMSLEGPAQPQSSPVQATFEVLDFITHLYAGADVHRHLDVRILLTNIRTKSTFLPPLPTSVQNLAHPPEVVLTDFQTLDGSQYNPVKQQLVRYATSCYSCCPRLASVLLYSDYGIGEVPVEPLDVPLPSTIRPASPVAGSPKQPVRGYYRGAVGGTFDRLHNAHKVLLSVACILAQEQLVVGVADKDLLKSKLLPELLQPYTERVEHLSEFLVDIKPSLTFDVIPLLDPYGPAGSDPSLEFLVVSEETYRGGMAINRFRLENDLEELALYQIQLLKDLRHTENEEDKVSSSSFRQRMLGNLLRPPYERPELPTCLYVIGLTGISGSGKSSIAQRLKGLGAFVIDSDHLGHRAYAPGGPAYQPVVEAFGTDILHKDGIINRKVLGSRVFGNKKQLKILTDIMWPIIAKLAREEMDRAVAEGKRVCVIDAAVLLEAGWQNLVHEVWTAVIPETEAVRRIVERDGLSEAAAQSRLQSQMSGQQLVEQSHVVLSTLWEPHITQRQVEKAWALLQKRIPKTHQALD
UniProt P02452, whole entry, looked up: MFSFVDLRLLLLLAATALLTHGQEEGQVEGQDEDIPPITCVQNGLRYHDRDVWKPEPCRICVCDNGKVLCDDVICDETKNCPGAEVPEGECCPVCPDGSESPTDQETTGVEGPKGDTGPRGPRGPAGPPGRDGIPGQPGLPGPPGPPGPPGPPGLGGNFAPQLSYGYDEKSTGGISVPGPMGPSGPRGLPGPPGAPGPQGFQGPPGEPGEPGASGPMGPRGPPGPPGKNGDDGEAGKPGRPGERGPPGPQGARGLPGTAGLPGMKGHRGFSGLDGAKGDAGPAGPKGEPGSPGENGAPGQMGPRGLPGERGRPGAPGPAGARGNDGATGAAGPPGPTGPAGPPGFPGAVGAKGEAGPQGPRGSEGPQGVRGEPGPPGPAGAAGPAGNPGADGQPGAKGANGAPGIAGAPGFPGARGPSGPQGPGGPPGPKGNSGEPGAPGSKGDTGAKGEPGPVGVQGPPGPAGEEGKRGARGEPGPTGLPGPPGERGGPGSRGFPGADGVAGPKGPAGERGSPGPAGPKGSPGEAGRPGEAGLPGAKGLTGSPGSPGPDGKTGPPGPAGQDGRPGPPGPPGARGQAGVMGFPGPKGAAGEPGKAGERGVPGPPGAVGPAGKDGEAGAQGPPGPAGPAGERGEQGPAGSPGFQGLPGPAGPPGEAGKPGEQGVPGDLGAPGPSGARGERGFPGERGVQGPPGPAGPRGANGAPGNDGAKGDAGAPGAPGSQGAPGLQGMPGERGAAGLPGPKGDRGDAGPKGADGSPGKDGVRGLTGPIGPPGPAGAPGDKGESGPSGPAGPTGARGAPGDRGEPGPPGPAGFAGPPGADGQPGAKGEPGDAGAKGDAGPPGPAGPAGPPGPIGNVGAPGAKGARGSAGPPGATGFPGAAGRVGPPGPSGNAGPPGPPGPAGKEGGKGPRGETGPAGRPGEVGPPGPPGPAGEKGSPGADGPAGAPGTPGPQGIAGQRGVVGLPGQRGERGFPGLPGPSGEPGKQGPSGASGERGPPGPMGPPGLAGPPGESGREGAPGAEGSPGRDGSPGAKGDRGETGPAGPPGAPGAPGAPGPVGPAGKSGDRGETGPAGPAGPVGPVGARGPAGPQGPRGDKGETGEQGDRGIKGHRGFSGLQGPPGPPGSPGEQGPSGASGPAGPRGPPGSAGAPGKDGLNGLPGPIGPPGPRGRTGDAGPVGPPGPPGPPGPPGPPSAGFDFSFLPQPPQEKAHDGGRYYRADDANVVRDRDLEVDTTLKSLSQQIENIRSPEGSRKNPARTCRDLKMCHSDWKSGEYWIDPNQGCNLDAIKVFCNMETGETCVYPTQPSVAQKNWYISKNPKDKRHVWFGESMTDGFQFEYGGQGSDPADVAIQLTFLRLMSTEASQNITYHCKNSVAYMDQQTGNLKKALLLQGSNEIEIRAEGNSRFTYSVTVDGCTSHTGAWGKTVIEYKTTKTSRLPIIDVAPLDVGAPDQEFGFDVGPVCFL
UniProt Q9H5X1: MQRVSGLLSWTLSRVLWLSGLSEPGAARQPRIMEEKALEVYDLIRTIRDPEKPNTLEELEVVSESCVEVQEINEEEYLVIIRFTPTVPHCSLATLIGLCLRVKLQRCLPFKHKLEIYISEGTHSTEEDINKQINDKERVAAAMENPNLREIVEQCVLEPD
UniProt P62633: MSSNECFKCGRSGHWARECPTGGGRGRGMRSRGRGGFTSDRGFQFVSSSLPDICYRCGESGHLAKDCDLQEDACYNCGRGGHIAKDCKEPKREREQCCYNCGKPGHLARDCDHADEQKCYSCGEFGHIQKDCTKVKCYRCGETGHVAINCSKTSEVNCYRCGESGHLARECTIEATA
UniProt Q9NPF2: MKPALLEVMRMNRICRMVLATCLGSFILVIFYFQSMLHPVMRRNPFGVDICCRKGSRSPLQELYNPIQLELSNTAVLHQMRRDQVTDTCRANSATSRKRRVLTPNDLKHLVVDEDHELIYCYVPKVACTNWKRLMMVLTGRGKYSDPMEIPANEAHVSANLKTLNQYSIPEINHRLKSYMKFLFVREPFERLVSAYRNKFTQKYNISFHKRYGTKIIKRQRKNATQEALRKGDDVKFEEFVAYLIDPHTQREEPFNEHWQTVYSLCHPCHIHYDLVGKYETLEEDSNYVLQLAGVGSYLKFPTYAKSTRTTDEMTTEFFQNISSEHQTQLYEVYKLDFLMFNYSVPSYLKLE
UniProt Q9H078: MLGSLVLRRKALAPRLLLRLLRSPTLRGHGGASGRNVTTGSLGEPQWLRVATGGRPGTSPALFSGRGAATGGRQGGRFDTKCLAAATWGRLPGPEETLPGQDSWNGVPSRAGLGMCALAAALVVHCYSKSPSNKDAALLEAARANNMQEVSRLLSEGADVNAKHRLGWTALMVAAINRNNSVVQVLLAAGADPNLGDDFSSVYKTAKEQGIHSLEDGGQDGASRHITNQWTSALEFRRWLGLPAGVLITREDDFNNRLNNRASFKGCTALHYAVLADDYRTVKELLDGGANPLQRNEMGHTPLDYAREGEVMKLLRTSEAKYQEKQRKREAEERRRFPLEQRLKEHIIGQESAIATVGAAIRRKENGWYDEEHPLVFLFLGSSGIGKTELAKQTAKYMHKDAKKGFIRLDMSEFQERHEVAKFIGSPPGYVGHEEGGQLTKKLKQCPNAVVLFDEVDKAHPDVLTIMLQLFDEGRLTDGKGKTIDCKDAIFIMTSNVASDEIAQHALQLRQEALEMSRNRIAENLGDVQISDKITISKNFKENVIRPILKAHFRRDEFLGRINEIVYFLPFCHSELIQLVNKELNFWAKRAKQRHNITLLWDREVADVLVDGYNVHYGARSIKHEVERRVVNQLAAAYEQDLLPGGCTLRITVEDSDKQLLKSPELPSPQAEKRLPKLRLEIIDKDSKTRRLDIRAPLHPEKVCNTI

[2] = compound: C/C(=N\NC(=O)C1=CC(=CC=C1)S(=O)(=O)N2CCOCC2)/C3=C(C=CC(=C3)Cl)O
Summary of the method: as §1

[3] = compound: C1=CC(=C(C=C1Cl)C2=NC3=NC=CN=C3C(=N2)NC4=CC=NC=C4)F
Summary of the method: as §1

[4] = compound: C1=CC(=CC=C1C2=NC3=C(N2)C=C(C=C3)C(=O)N)OC4=CC=C(C=C4)Cl
Summary of the method: as §1

[5] = compound: C1=CC2=C(C=CC(=C2)/C=C\3/C(=O)NC(=NCC4=CC=CS4)S3)N=C1
Summary of the method: as §1

[6] = compound: C1=CC2=NC=CN=C2C=C1/C=C/3\C(=O)NC(=O)S3
Summary of the method: as §1

[7] = compound: C1=CC=C(C=C1)C2=NC(=C(N2)C3=CC=NC=C3)C4=CC(=C(C=C4)Cl)O
Summary of the method: as §1

[8] = compound: C1=CC=C2C(=C1)C3=NNC4=CC=CC(=C43)C2=O
Summary of the method: as §1

[9] = compound: C1CCN(C1)C(=O)NC2=CC=CC(=C2)NC3=NC=C(C(=N3)NCCC4=CN=CN4)Br
Summary of the method: as §1

[10] = compound: C1CN(CCC1(CC2=CC=C(C=C2)Cl)N)C3=NC=NC4=C3C=CN4
Summary of the method: as §1

[11] = compound: C1COCCN1CCN2C3=CC=CC=C3N=C2NC(=O)C4=CC(=CC=C4)[N+](=O)[O-] [IRAK-1-4 Inhibitor I]
Summary of the method: as §1

[12] = compound: C=CC(=O)N1CCC[C@@H](n2nc(-c3ccc(Oc4ccccc4)cc3)c3c(N)ncnc32)C1 [ibrutinib]
Summary of the method: as §1

[13] = compound: CC(=O)c1cnc2ccc(-c3cc(Cl)c(O)c(Cl)c3)nc2c1N[C@H]1CC[C@H](CN(C)C)CC1
Summary of the method: as §1

[14] = compound: CC(C)(C)Cn1c(N)nc2ccc(-c3[nH]c(C(C)(C)C)nc3-c3ccc(F)cc3)nc21 [ralimetinib]
Summary of the method: as §1

[15] = compound: CC(C)(O)CC(=O)NCCn1ccc2ncnc(Nc3ccc(Oc4cccc(C(F)(F)F)c4)c(Cl)c3)c21
Summary of the method: as §1

[16] = compound: CC(C)C1=C2N=C(C=C(N2N=C1)NCC3=CC=CC=C3)NCCCCCCN
Summary of the method: as §1

[17] = compound: CC(C)C[C@@H](C=O)NC(=O)[C@H](CC(C)C)NC(=O)[C@H](CC(C)C)NC(=O)OCc1ccccc1
Summary of the method: as §1

[18] = compound: CC(C)N(C[C@H]1O[C@@H](n2cnc3c(N)ncnc32)[C@H](O)[C@@H]1O)[C@H]1C[C@@H](CCc2nc3cc(C(C)(C)C)ccc3[nH]2)C1 [pinometostat]
Summary of the method: as §1

[19] = compound: CC1=C(C2=C(C=C1)C(=O)C3=CC=CC=C3N2CCCN)C
Summary of the method: as §1

[20] = compound: CC1=C(C(CC(=O)N1)C2=CC=C(C=C2)C(F)(F)F)C(=O)NC3=C(C=C4C(=C3)C=NN4)F
Summary of the method: as §1

Measured: log2 fold change

CHP1 (UniProt Q99653)
inactive: [1] -0.022 | [2] 0.024 | [3] 0.097 | [4] 0.012 | [5] -0.056 | [6] 0.008 | [8] 0.006 | [9] -0.07 | [10] 0.091 | [11] 0.091 | [12] -0.024 | [13] 0.001 | [14] 0.145 | [15] -0.017 | [16] 0.017 | [17] -0.061 | [18] -0.02 | [19] -0.047
active: [7] 0.287

CMBL (UniProt Q96DG6)
inactive: [1] 0.084 | [2] -0.024 | [3] 0.059 | [4] -0.084 | [5] 0.049 | [6] 0.008 | [7] 0.007 | [8] -0.01 | [9] 0.025 | [10] 0.021 | [11] 0.074 | [12] 0.007 | [13] 0.167 | [14] -0.026 | [15] -0.016 | [16] 0.019 | [17] -0.05 | [18] -0.087 | [20] -0.028 | [19] 0.015

CHST10 (UniProt O43529)
inactive: [1] 0.013 | [2] -0.168 | [3] -0.144 | [4] -0.058 | [5] -0.111 | [6] 0.03 | [7] 0.067 | [8] 0.101 | [9] 0.008 | [10] 0.06 | [11] 0.056 | [12] -0.062 | [13] -0.135 | [14] 0.059 | [15] 0.042 | [17] -0.003 | [18] 0.082 | [19] 0.036
active: [16] -0.435

CIAPIN1 (UniProt Q6FI81)
inactive: [1] -0.027 | [2] 0.041 | [3] 0.089 | [4] -0.02 | [5] 0.006 | [6] 0.044 | [7] 0.032 | [8] 0.023 | [9] -0.017 | [10] 0.007 | [11] 0.015 | [12] -0.02 | [13] -0.019 | [14] 0.029 | [15] -0.035 | [16] -0.009 | [17] -0.013 | [18] -0.052 | [20] -0.001 | [19] 0.02

Two records picked at random from those above, as already listed:
CHST10 (UniProt O43529)
inactive: [1] 0.013 | [2] -0.168 | [3] -0.144 | [4] -0.058 | [5] -0.111 | [6] 0.03 | [7] 0.067 | [8] 0.101 | [9] 0.008 | [10] 0.06 | [11] 0.056 | [12] -0.062 | [13] -0.135 | [14] 0.059 | [15] 0.042 | [17] -0.003 | [18] 0.082 | [19] 0.036
active: [16] -0.435

CIAPIN1 (UniProt Q6FI81)
inactive: [1] -0.027 | [2] 0.041 | [3] 0.089 | [4] -0.02 | [5] 0.006 | [6] 0.044 | [7] 0.032 | [8] 0.023 | [9] -0.017 | [10] 0.007 | [11] 0.015 | [12] -0.02 | [13] -0.019 | [14] 0.029 | [15] -0.035 | [16] -0.009 | [17] -0.013 | [18] -0.052 | [20] -0.001 | [19] 0.02

Next records.

CKB (UniProt P12277)
inactive: [1] 0.011 | [2] 0.045 | [3] 0.052 | [4] 0.035 | [5] 0.018 | [6] -0.038 | [7] 0.01 | [8] 0.065 | [9] 0.022 | [10] 0.027 | [11] 0.014 | [12] -0.024 | [13] -0.009 | [14] -0.01 | [15] -0.077 | [16] -0.045 | [17] 0.021 | [18] -0.02 | [19] 0.059

CKS1B (UniProt P61024)
inactive: [1] -0.014 | [2] 0 | [3] 0.028 | [4] -0.013 | [5] 0.044 | [6] 0.029 | [7] 0.11 | [8] -0.045 | [9] -0.012 | [10] 0.034 | [11] -0.011 | [12] -0.008 | [13] -0.127 | [15] 0.001 | [16] 0.027 | [17] -0.031 | [18] -0.044 | [19] 0.054
active: [14] 0.222

CMSS1 (UniProt Q9BQ75)
inactive: [1] -0.051 | [2] 0.114 | [3] -0.121 | [4] -0.045 | [5] 0.044 | [6] -0.011 | [7] -0.003 | [8] -0.127 | [9] -0.026 | [10] -0.014 | [11] -0.065 | [12] -0.014 | [13] -0.081 | [14] 0.171 | [15] -0.006 | [16] 0.219 | [17] 0.069 | [18] -0.028 | [20] 0.058 | [19] -0.248

CIZ1 (UniProt Q9ULV3)
inactive: [1] 0.002 | [2] 0.024 | [3] 0.032 | [4] 0.069 | [5] 0.009 | [6] 0.083 | [7] -0.092 | [8] -0.085 | [9] 0.034 | [10] -0.016 | [11] 0.013 | [12] -0.03 | [13] -0.044 | [14] 0.056 | [15] -0.056 | [16] 0.035 | [17] 0.053 | [18] -0.02
active: [19] -0.248

CNOT2 (UniProt Q9NZN8)
inactive: [1] 0.043 | [2] 0.059 | [3] 0.009 | [4] -0.024 | [5] 0.016 | [6] 0.045 | [7] -0.031 | [8] -0.042 | [9] -0.019 | [10] -0.034 | [11] 0.112 | [12] 0.013 | [13] -0.045 | [14] -0.027 | [15] -0.038 | [16] -0.112 | [17] 0.013 | [18] 0.05 | [19] 0.059

CNN2 (UniProt Q99439)
inactive: [1] 0.047 | [2] 0.124 | [3] 0.109 | [4] -0.039 | [5] 0.013 | [6] 0.032 | [7] -0.012 | [8] -0.011 | [9] -0.017 | [10] -0.042 | [11] -0.037 | [12] -0.07 | [13] 0.011 | [14] 0.007 | [15] -0.091 | [16] -0.052 | [17] 0.038 | [18] 0.018 | [19] 0.007

COASY isoform 2 (UniProt Q13057)
inactive: [1] -0.022 | [2] 0.1 | [3] 0.042 | [4] -0.067 | [5] 0.032 | [6] 0.01 | [7] 0.076 | [8] 0.043 | [9] -0.011 | [10] 0.092 | [11] 0.039 | [12] 0.004 | [13] -0.016 | [14] -0.032 | [15] -0.063 | [16] 0.037 | [17] -0.02 | [18] 0.005 | [19] 0.079

CNOT7 (UniProt Q9UIV1)
inactive: [1] 0.025 | [2] -0.002 | [3] -0.059 | [4] 0.018 | [5] 0.194 | [6] -0.044 | [7] 0.128 | [8] 0.048 | [9] -0.003 | [10] 0.016 | [11] -0.039 | [12] 0.022 | [13] -0.013 | [14] -0.016 | [15] -0.021 | [16] -0.002 | [17] 0.079 | [18] 0.066 | [19] 0.033

COL1A1 (UniProt P02452)
inactive: [1] -0.3 | [2] 0.062 | [3] 0.117 | [4] 0.064 | [5] -0.256 | [6] -0.276 | [7] -0.004 | [8] 0.061 | [9] 0.272 | [10] 0.278 | [11] 0.029 | [12] -0.063 | [13] 0.227 | [14] 0.095 | [15] 0.326 | [16] 0.163 | [17] -0.245 | [18] -0.114 | [19] -0.237

CIAO2A (UniProt Q9H5X1)
inactive: [1] 0.007 | [2] 0.038 | [3] 0.038 | [4] 0.033 | [5] 0.026 | [6] 0.041 | [7] -0.022 | [8] -0.057 | [9] 0.007 | [10] -0.001 | [11] 0.05 | [12] -0.035 | [13] -0.083 | [14] -0.013 | [15] 0.028 | [16] -0.175 | [17] 0.017 | [18] -0.053 | [20] 0.037 | [19] 0.061

CNBP isoform 6 (UniProt P62633)
inactive: [1] -0.022 | [2] -0.017 | [3] -0.12 | [4] -0.021 | [5] -0.04 | [6] 0.011 | [7] -0.064 | [8] -0.014 | [9] -0.004 | [10] 0.035 | [11] 0.003 | [12] 0.038 | [13] 0.002 | [14] 0.058 | [15] 0.086 | [16] 0.134 | [17] 0.052 | [18] 0 | [20] 0.021 | [19] 0.038

CHST11 (UniProt Q9NPF2)
inactive: [1] -0.061 | [2] 0.082 | [3] 0.046 | [4] -0.054 | [5] -0.118 | [6] 0.007 | [7] 0.161 | [8] 0.057 | [9] 0.002 | [10] -0.067 | [11] -0.002 | [12] -0.032 | [13] 0.063 | [14] -0.406 | [15] 0.057 | [16] -0.257 | [17] -0.17 | [18] 0.084 | [19] -0.058

CLPB isoform 2 (UniProt Q9H078)
inactive: [1] 0.009 | [2] 0.018 | [3] -0.013 | [4] -0.003 | [5] 0.045 | [6] 0.003 | [7] 0.105 | [8] 0.004 | [9] -0.023 | [10] -0.004 | [11] 0.011 | [13] -0.059 | [14] 0.04 | [15] -0.074 | [16] -0.116 | [17] 0.021 | [18] 0.012 | [20] -0.018 | [19] 0.076

From the supplement of paper PMC10849652
